In patent US8648047B2, “Methods and compositions for inhibition of multi-drug resistance by hyaluronan oligomers” (Tufts University, priority 2002, dated 2014):
Entries after “also recorded” stand apart in the source; their conditions may differ. At least one compound was matched to its structure with a doubt left.

Legend:
[1] = test system: α-isoform of PI3 kinase in TA3/St cells; experiment: PI3 kinase α isoform assay (immunoprecipitated); type: cell-based, mouse; conditions: 150 μg/ml polysaccharide controls, 50 nM wortmannin
MDCK cells = experiment: Colony formation in 0.2% soft agar by MDCK cells; type: cell-based; conditions: HA oligomers 100 μg/ml, LY294002 50 ng/ml

For `COC[C@H]1OC(=O)c2coc3c2[C@@]1(C)C1=C(C3=O)[C@@H]2CCC(=O)[C@@]2(C)C[C@H]1OC(C)=O` [wortmannin], the “effect on PI3 kinase-α activity” value ([1]; 20 μM LY294002, 1:50 antibody to CD44) was “mimicked the effect of HA oligomers”, the “effect on PI3 kinase-α activity” value ([1]; 20 μM LY294002, 1:50 antibody to CD44, listed as Wortmannin) was “virtually the same effect as that of the oligomers” and the “colony formation by Has2 adenovirus-infected MDCK cells” value (MDCK cells) was “reversed this effect; also recorded: reduced the colony forming ability to that of untransfected control cells”.
